# Measured values from paper PMC5363601.
# Sequences of proteins named here, by UniProt entry; tags and fusion partners are left off.
# UniProt Q07812: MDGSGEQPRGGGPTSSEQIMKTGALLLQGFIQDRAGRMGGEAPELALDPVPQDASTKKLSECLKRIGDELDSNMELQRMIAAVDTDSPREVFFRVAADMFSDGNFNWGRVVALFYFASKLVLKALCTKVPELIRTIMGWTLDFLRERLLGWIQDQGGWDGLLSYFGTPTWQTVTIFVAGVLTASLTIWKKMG
# No constants are given. Whether binding was seen depends on the method and setting. In cells and extracts the contact can be indirect. Some results given as binding are weak or reduced against the parent protein; the word gives no strength. For part of these data: Tags and fused reporters may be left off the sequences shown.
# Experiments:
# [1] = target: T1, protein phosphatase Mg2+/Mn2+ dependent 1F (PPM1F) (human (endogenous in MDA-MB-231)) (UniProt P49593); assay: co-IP; 200 ug lysate of MDA-MB-231 cells treated with or without nicotine (10 uM, 24 hours); precipitated with anti-p-p53, anti-p-BAX or anti-PPM1F antibodies (2 ug) and protein A-agarose beads; Western blotting for p53 (total), p-p53 (Ser-20), BAX (total), p-BAX (Ser-184) and PPM1F
# T1 sequence: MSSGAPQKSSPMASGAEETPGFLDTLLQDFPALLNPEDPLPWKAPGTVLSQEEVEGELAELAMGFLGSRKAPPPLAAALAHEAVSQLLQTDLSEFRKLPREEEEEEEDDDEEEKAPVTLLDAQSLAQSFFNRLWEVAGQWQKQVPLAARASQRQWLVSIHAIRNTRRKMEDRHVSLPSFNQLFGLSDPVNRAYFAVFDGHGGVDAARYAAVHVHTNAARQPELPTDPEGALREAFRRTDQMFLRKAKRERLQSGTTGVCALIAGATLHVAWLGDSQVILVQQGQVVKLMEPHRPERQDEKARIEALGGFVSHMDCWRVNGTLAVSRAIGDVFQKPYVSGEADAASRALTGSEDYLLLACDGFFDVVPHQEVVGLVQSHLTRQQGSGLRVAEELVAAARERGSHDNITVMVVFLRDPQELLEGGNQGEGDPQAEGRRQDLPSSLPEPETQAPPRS
# [2] = target: T2, recombinant PPM1F with a His Tag (6x) and a c-Myc-Epitope-Tag (human) (UniProt P49593); assay: FRET or BRET; acceptor photobleaching FRET by confocal microscopy; cells treated with nicotine (10 uM, 24 hours) and stained with anti-PPM1F (FITC-labeled, donor) and anti-p-p53 (Ser-20) or anti-p-BAX (Ser-184) (rhodamine-labeled, acceptor) antibodies
# T2 sequence: T1 sequence
Substance,binding [1],binding [2]
BAX (total) (from UniProt Q07812 1-192),binds,–
phosphorylated BAX (Ser-184) (from UniProt Q07812 1-192),binds,binds
